Data on two molecules can be found in paper doi:10.1101/2020.03.21.000570.

Protein sequences, listed by entry. Tags and fused reporters are not part of them.
UniProt Q9FIJ0: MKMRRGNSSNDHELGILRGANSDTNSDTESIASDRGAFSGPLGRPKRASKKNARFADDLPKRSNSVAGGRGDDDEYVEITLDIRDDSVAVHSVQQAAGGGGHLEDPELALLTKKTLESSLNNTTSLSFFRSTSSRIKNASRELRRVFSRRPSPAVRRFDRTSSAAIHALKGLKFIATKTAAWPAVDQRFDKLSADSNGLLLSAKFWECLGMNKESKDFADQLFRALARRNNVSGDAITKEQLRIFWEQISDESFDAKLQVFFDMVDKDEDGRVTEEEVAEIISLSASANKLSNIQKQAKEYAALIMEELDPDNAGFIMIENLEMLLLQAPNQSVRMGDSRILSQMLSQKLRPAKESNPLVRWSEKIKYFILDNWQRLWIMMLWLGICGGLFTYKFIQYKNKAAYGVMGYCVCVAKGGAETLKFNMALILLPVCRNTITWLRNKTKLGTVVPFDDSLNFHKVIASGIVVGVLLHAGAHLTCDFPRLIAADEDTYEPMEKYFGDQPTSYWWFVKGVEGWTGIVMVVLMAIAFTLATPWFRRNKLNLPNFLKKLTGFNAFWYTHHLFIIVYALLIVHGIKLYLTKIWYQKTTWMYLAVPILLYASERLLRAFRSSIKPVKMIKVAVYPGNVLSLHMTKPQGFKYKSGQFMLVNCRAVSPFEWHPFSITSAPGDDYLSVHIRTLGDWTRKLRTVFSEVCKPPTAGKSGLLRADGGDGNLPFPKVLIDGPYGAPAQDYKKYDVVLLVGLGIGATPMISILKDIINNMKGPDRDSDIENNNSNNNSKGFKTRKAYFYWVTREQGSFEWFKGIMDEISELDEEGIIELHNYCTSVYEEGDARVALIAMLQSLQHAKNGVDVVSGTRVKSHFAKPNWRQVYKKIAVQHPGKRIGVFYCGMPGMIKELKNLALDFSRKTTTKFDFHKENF
UniProt O48538: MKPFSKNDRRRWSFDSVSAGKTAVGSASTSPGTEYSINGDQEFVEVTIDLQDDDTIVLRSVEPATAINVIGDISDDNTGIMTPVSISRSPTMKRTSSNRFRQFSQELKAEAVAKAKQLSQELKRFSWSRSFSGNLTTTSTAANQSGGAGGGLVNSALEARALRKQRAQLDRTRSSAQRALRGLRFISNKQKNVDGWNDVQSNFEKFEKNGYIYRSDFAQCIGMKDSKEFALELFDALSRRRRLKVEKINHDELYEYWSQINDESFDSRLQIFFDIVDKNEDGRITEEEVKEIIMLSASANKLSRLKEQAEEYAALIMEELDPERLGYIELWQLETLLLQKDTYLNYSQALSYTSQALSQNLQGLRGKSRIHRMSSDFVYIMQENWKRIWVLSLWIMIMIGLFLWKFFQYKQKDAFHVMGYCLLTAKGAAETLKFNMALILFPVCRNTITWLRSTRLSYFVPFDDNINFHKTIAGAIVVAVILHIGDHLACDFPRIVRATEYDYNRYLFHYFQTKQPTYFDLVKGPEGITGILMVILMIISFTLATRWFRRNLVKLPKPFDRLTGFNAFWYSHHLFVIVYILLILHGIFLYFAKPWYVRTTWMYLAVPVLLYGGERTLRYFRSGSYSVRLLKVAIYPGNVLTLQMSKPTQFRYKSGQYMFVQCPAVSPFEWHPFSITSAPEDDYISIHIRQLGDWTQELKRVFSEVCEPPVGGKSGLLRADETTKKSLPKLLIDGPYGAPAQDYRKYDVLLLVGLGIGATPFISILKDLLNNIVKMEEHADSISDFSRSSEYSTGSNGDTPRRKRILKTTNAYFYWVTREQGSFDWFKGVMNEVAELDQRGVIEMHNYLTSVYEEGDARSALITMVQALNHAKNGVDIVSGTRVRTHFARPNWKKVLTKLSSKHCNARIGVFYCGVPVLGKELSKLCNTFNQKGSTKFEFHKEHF

Assay [1] concerns the target T1, RBOHB, NADPH oxidase, BiFC fusion (Arabidopsis thaliana) (UniProt Q9SBI0).
T1 sequence: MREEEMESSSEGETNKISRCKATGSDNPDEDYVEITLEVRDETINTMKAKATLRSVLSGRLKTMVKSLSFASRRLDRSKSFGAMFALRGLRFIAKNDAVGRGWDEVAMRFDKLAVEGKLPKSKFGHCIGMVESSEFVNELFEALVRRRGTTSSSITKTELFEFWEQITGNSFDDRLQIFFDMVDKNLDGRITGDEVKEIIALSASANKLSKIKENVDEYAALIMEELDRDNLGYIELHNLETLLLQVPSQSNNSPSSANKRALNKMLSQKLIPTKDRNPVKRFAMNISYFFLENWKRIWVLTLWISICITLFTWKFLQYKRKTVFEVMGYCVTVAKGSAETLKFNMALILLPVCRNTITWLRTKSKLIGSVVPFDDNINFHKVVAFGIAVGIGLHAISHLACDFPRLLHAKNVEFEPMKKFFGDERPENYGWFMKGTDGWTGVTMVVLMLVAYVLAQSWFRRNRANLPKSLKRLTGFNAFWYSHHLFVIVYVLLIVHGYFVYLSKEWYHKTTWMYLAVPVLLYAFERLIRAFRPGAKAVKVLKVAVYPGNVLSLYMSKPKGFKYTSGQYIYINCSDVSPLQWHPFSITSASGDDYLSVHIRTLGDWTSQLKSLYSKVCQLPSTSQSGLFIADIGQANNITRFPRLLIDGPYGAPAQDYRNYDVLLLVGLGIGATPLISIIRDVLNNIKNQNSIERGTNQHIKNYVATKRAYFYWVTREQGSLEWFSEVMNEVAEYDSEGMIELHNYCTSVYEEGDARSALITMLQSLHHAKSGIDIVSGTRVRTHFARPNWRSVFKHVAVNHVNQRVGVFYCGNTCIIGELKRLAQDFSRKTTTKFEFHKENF
Kind of assay: split reporter.

Assay [2] has as its target RBOHD, NADPH oxidase, BiFC fusion (Arabidopsis thaliana) (UniProt Q9FIJ0). Kind of assay: split reporter.
Assay [3] concerns the target T2, RBOHC, NADPH oxidase, BiFC fusion (Arabidopsis thaliana) (UniProt O81210).
T2 sequence: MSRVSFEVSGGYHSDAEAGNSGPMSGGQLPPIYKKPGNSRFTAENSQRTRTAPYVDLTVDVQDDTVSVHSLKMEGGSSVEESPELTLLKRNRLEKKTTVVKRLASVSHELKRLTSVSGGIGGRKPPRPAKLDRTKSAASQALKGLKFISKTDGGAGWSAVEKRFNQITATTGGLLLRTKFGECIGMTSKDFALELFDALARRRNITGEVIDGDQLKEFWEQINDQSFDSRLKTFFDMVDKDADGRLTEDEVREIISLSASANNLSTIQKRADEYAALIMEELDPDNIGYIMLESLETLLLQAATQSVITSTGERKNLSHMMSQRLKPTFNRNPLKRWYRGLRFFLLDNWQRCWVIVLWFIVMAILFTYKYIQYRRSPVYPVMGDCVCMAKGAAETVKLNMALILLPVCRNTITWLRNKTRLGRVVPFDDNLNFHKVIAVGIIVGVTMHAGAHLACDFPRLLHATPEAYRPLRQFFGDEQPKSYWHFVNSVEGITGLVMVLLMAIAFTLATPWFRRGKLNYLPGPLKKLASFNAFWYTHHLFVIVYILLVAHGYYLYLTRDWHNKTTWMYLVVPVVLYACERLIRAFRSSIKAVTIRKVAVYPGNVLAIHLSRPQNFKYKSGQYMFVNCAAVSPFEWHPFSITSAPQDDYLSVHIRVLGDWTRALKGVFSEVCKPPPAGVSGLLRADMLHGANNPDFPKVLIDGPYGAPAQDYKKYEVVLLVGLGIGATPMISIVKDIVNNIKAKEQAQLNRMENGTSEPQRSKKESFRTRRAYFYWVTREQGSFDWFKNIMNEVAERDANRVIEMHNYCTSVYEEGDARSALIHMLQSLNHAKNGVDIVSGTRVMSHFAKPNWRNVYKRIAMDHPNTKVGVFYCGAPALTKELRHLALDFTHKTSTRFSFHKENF
As to the kind of experiment: split reporter.

Assay [4] deals with T3, SGN3, receptor-like kinase, BiFC fusion (Arabidopsis thaliana) (UniProt C0LGQ5).
T3 sequence: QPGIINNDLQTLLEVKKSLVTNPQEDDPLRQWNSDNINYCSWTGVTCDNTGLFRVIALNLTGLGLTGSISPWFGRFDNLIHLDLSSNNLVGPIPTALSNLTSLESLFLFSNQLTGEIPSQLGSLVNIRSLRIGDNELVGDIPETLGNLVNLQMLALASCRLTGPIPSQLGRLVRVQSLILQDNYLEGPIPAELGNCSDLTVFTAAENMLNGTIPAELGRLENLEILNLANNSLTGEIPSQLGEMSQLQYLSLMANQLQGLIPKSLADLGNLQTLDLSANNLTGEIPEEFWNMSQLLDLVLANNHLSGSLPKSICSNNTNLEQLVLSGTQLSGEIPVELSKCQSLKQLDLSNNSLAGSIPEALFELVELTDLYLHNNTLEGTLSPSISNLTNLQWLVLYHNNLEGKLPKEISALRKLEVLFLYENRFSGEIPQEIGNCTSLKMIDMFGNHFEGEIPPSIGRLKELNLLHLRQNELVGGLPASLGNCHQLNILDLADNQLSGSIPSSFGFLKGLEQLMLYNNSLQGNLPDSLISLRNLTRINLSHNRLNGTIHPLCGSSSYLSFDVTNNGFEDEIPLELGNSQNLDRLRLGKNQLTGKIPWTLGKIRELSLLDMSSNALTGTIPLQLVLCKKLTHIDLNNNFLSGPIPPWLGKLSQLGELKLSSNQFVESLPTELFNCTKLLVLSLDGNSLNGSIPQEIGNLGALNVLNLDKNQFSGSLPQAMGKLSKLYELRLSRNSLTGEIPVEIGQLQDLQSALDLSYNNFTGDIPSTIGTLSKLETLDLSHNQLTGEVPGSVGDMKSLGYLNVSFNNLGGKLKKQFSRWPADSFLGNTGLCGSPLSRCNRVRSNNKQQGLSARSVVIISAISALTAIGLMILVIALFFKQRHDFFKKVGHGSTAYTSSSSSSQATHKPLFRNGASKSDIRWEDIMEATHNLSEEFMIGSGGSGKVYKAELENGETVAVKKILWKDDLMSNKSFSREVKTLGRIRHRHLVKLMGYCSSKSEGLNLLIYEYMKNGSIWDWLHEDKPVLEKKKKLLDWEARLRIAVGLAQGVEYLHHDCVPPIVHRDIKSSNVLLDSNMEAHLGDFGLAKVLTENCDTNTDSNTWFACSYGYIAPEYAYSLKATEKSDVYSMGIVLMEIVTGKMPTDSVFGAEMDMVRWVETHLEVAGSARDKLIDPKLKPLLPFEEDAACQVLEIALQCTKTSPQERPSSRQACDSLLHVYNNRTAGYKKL
As to the kind of experiment: split reporter.

Assay [5] addresses T4, BAK1, co-receptor kinase, BiFC fusion (Arabidopsis thaliana) (UniProt Q94F62).
T4 sequence: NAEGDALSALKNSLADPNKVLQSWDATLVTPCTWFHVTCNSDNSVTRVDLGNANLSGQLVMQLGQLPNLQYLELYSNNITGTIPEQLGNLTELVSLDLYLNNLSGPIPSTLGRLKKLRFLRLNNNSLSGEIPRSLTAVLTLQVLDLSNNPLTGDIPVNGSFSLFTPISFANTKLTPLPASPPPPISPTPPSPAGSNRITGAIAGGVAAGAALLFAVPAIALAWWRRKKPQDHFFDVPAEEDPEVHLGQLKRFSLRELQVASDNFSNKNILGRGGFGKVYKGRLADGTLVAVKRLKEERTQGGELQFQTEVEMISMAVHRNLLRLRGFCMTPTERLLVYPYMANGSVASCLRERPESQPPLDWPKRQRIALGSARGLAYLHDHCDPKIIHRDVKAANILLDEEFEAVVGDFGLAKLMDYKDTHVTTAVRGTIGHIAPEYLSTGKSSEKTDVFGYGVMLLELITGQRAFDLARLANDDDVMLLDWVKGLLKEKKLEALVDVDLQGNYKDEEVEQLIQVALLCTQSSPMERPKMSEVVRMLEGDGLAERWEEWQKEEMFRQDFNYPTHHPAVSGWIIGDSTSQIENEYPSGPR
As to the kind of experiment: split reporter.

In assay [6] the target is RBOHF, NADPH oxidase, BiFC fusion (Arabidopsis thaliana) (UniProt O48538). Kind of assay: split reporter.
Assay [7] addresses RBOHF, epitope-tagged, expressed in Arabidopsis protoplasts (Arabidopsis thaliana) (UniProt O48538). As to the kind of experiment: co-IP.
Assay [8] addresses T5, RBOHC, epitope-tagged, expressed in Arabidopsis protoplasts (Arabidopsis thaliana) (UniProt O81210).
T5 sequence: T2 sequence
Kind of assay: co-IP.

The target of assay [9] is RBOHD, epitope-tagged, expressed in Arabidopsis protoplasts (Arabidopsis thaliana) (UniProt Q9FIJ0). As to the kind of experiment: co-IP.

Results are given in words; binding and its absence hold for the method and conditions named. Binding seen in cells or lysates may run through a third protein. Some entries that bind do so weakly or less than the wild type. Sequences can lack the tags named with a protein.

B1: LKS4 (low-K+ sensitive 4), receptor-like cytoplasmic kinase, BiFC fusion (enzyme, UniProt Q9SY91 1-424)
chain: MRDSSTTASTKSSPLWKPFASNCCSVDDQTVFGNLSRCRPSRSEFSKNHLGPLPSFRRLSFADLSRSSSARINEDLAQTLGADLVDFQMCELKMITQSFSGNYLLGEGGFGKVYKGYVDDYLRQSLKAQPVAVKLLDIEGLQGHREWLSEVIFLGQLKHPNLVKLIGYCCEEEERVLIYEFMPRGSLENHLFRRISLSLPWATRLKIAVAAAKGLAFLHDLESPIIYRDFKTSNILLDSDFTAKLSDFGLAKMGPEGSKSHVTTRVMGTYGYAAPEYVSTGHLTTKSDVYSYGVVLLELLTGRRATEKSRPKNQQNIIDWSKPYLTSSRRLRCVMDPRLAGQYSVKAAKDTALLALQCVSPNPKDRPKMLAVVEALESLIHYKDMAVSSGHWPLSPKSQGGKVSPKVRGDHRSGRKSAPGSLRS
With B1, the binding result in [1] is “no binding”; in [2], “binds”; in assay [3] it was “binds”; in assay [4], “binds”; in assay [5], “no binding”; in assay [6] it was “binds”.

B2: LKS4, epitope-tagged, expressed in Arabidopsis protoplasts (enzyme, UniProt Q9SY91 1-424)
chain: B1 chain
Turning to B2, the binding entry in [7], in [8] and in assay [9] was “binds” in each case.
